Data: US20080287283A1, “Catalyst body and methods” (priority 2007, published 2008)

Experiment: Nitrogen oxide SCR conversion activity of catalyst bodies versus temperature

What does the source list for `O=S(=O)([O-])[O-].O=S(=O)([O-])[O-].[Fe+2].[NH4+].[NH4+]` [ferrous ammonium sulfate, reference compound]?
NOx conversion greater than iron nitrate (Example 1, FIG. 1, ZSM-5, at any temperature, about 175 to about 650° C.): 10-20%; NOx conversion at 625° C. (Example 2, FIG. 2, iron precursor on β zeolite, about 4% iron, wash coat on cordierite honeycomb): about 30%; light-off at 70% conversion, faster than ferrous gluconate (Example 2, FIG. 2, β zeolite): about 25 °C
